Experimental findings from publication PMC12406481 are described below.

Construct, isoform or probe ends are uncertain for at least one entry.

The test system of this data set is GST-MdILR3 (Malus x domestica). Put plainly: EMSA. As to conditions: EMSA with purified MdILR3-GST and biotin probes, 24 °C, 30 min, chemiluminescent EMSA kit, salt and pH not stated, recombinant protein, protein details: GST (pGEX-4T), label: biotin. (A gel shift assay detects complexes by their altered migration in electrophoresis.)

For the sequence “TCTGCCAGGTGTTGACACGTGTCCTATTTGATGACT (double strand) [pMdNRT2.3 G-box probe]”, the binding result (reduced by unlabeled probe) is given as “binds”.

Regarding “AAATTATATTTTTGCCACGTGGCACAAATTTGGCTA (double strand) [pMdNRT2.4 G-box probe]”, where the note is “reduced by unlabeled probe”, the binding result is given as “binds”.

As for “GCCTGTCTCCCTGCCCACGTGTCCATTTAAATCTCC / GGAGATTTAAATGGACACGTGGGCAGGGAGACAGG [pMdSWEET12 G-box probe]”, the binding result is on record as “binds”.

With “GCACATAAGGTGATACACCACGTGTCACTATACAAATGATGA (double strand) [pMdNIA1 G-box probe]”, the binding result (reduced by unlabeled probe) is “binds”.
